According to article PMC7862700:
This is a selection; strong and weak results do not stand in their true shares. At the low end of the ranking the order means little.

The chains behind the UniProt entries cited, without tags or fusion partners. Where a name states a change or a piece, a line headed by the entry shows the natural chain unless it says otherwise.
UniProt O43186: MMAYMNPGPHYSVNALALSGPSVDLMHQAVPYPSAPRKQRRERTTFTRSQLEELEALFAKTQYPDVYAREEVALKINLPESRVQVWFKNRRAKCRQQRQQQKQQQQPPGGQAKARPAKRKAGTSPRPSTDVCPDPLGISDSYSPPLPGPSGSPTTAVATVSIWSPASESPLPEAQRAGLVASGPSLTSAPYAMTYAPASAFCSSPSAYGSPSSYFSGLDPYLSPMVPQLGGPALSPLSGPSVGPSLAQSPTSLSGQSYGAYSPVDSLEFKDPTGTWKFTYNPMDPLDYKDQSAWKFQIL

Tests used:
Experiment in all cases: DAPPL (digital affinity profiling via proximity ligation, sequencing)
Settings in all cases: 10 mM Tris-HCl pH 7.5, 50 mM NaCl, 1 mM DTT, 4% glycerol, room temperature, 30 min; GST-TFs on glutathione beads, 16-mer random dsDNA library, 0.1% …; high values mean tight binding; double strand, one strand shown; scale: fold enrichment (6-mer frequency, TF over GST control)
FEV = target: T1, FEV (UniProt Q99581)
T1 sequence: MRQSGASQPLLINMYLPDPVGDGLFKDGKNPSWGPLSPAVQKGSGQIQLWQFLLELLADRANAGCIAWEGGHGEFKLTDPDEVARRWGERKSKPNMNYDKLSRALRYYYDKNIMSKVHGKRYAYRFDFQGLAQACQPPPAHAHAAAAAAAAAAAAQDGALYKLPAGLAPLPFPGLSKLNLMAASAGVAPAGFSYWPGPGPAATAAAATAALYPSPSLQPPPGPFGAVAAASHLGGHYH

CRX = CRX (UniProt O43186)
ELF5 = target: T2, ELF5 (UniProt Q9UKW6-2)
T2 sequence: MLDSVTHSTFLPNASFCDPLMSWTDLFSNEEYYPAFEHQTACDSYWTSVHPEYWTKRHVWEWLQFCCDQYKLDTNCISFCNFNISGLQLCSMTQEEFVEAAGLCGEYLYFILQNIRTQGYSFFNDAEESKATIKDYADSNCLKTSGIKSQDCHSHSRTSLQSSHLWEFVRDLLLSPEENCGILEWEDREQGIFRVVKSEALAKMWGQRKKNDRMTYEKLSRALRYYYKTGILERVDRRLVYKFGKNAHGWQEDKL

GACGGA was tested, and the binding signal (FEV) was 0.543, the binding signal (CRX) was 0.405 and the binding signal (ELF5) was 0.57.

Sequence TGAGGT has a binding signal (FEV) of 0.564, a binding signal (CRX) of 0.543 and a binding signal (ELF5) of 0.63.

Work on TCGGGA yielded a binding signal (FEV) of 0.357, a binding signal (CRX) of 0.429 and a binding signal (ELF5) of 0.395.

CAACAG showed a binding signal (FEV) of 0.894, a binding signal (CRX) of 0.74 and a binding signal (ELF5) of 0.891.

For AGAGGT, the binding signal (FEV) was 0.75, the binding signal (CRX) was 0.779 and the binding signal (ELF5) was 0.828.

For ACAGAC, the binding signal (FEV) was 0.832, the binding signal (CRX) was 0.624 and the binding signal (ELF5) was 0.79.

AGTAGA was tested, and the binding signal (FEV) was 0.731, the binding signal (CRX) was 0.756 and the binding signal (ELF5) was 0.75.

With GGCGGG the binding signal (FEV) was 0.315, the binding signal (CRX) was 0.253 and the binding signal (ELF5) was 0.28.

Work on ACGCAA yielded a binding signal (FEV) of 0.924, a binding signal (CRX) of 0.804 and a binding signal (ELF5) of 0.823.

For GGCCCA, the binding signal (FEV) was 0.854, the binding signal (CRX) was 0.656 and the binding signal (ELF5) was 0.8.

AGCCCG showed a binding signal (FEV) of 0.9, a binding signal (CRX) of 0.739 and a binding signal (ELF5) of 0.867.

GAAGGC showed a binding signal (FEV) of 0.84, a binding signal (CRX) of 0.701 and a binding signal (ELF5) of 0.908.

Sequence AAGAGT has a binding signal (FEV) of 0.839, a binding signal (CRX) of 0.837 and a binding signal (ELF5) of 0.884.

TCGGTC gave a binding signal (FEV) of 0.574, a binding signal (CRX) of 0.455 and a binding signal (ELF5) of 0.543.

For AGCCAA, the binding signal (FEV) was 0.822, the binding signal (CRX) was 0.876 and the binding signal (ELF5) was 0.874.

For GGGGCA, the binding signal (FEV) was 0.671, the binding signal (CRX) was 0.531 and the binding signal (ELF5) was 0.662.

For GGACTG, the binding signal (FEV) was 0.724, the binding signal (CRX) was 0.534 and the binding signal (ELF5) was 0.668.

CGAGTG gave a binding signal (FEV) of 0.802, a binding signal (CRX) of 0.679 and a binding signal (ELF5) of 0.776.

Work on CGTGTG yielded a binding signal (FEV) of 0.415, a binding signal (CRX) of 0.327 and a binding signal (ELF5) of 0.424.

GATGAG showed a binding signal (FEV) of 0.815, a binding signal (CRX) of 0.821 and a binding signal (ELF5) of 0.834.

Sequence ACGGTC has a binding signal (FEV) of 0.681, a binding signal (CRX) of 0.562 and a binding signal (ELF5) of 0.717.

GACAGT showed a binding signal (FEV) of 0.429, a binding signal (CRX) of 0.351 and a binding signal (ELF5) of 0.443.

Sequence GTCGCA has a binding signal (FEV) of 0.768, a binding signal (CRX) of 0.519 and a binding signal (ELF5) of 0.721.

With TTGGAG the binding signal (FEV) was 0.511, the binding signal (CRX) was 0.512 and the binding signal (ELF5) was 0.496.

Work on TGAAGT yielded a binding signal (FEV) of 0.685, a binding signal (CRX) of 0.66 and a binding signal (ELF5) of 0.704.

For GAGTCA, the binding signal (FEV) was 0.266, the binding signal (CRX) was 0.24 and the binding signal (ELF5) was 0.271.

In the case of GTCATA, the binding signal (FEV) is reported as 0.723, the binding signal (CRX) is reported as 0.603 and the binding signal (ELF5) is reported as 0.699.

With CAATCG the binding signal (FEV) was 0.859, the binding signal (CRX) was 0.882 and the binding signal (ELF5) was 0.855.

CGTGCT gave a binding signal (FEV) of 0.772, a binding signal (CRX) of 0.662 and a binding signal (ELF5) of 0.832.

GAGCAC showed a binding signal (FEV) of 0.725, a binding signal (CRX) of 0.533 and a binding signal (ELF5) of 0.636.

Work on GCTCGG yielded a binding signal (FEV) of 0.745, a binding signal (CRX) of 0.669 and a binding signal (ELF5) of 0.731.

CGGGAG gave a binding signal (FEV) of 0.206, a binding signal (CRX) of 0.163 and a binding signal (ELF5) of 0.193.

GTGCGA showed a binding signal (FEV) of 0.812, a binding signal (CRX) of 0.668 and a binding signal (ELF5) of 0.788.

In the case of TGACGT, the binding signal (FEV) is reported as 0.902, the binding signal (CRX) is reported as 0.768 and the binding signal (ELF5) is reported as 0.917.
